According to PMC12794201:
Results are given in words; binding and its absence hold for the method and conditions named. Binding seen in cells or lysates may run through a third protein. Some entries that bind do so weakly or less than the wild type. Sequences can lack the tags named with a protein.

By UniProt entry, the sequences of proteins in these tests, tags left out.
UniProt Q9NQT8: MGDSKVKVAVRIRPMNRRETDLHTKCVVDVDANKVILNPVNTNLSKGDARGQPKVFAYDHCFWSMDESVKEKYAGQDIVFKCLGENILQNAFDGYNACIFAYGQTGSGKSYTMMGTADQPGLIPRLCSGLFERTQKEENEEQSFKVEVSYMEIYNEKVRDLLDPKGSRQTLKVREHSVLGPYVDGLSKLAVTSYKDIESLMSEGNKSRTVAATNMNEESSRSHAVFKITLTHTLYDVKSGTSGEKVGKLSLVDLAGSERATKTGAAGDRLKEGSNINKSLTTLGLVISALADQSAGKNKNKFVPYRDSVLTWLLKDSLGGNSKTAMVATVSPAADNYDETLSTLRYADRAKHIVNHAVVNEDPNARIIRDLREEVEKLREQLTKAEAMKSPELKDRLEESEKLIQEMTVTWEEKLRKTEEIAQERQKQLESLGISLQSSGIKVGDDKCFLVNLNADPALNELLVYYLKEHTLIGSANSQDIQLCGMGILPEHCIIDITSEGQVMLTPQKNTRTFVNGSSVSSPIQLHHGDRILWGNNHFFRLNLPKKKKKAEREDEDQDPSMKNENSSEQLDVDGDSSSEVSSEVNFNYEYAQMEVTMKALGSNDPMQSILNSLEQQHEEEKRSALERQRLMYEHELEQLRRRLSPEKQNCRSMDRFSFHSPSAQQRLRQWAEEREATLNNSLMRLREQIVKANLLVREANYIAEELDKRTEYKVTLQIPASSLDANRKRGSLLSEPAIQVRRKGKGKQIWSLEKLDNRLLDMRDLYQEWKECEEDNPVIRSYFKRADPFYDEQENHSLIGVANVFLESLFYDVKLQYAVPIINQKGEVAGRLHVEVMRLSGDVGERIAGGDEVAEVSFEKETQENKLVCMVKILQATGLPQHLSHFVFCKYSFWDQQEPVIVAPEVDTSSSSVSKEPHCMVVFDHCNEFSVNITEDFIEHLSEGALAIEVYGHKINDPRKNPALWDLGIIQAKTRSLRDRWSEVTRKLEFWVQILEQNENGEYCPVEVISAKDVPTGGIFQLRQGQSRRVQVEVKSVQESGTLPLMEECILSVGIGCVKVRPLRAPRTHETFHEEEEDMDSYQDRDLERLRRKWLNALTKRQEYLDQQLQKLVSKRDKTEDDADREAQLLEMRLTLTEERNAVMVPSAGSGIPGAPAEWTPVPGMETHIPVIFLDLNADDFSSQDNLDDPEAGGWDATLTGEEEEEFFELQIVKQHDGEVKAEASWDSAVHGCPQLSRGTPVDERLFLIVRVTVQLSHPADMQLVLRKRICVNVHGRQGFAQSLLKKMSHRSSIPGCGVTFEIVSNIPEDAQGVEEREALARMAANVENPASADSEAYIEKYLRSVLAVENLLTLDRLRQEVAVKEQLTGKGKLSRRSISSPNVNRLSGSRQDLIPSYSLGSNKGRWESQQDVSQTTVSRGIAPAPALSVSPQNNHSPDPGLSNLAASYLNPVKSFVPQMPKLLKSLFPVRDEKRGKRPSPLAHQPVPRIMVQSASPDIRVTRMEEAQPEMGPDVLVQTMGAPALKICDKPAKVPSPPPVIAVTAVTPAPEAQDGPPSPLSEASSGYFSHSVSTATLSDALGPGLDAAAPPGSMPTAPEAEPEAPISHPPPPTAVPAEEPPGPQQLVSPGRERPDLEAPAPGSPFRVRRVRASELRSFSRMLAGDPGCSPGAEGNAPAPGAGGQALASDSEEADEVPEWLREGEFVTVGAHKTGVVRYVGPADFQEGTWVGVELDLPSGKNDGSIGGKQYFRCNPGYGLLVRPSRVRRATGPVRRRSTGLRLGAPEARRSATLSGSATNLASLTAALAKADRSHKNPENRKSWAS

Target: T1, human perilipin 5 with HA (hPLIN5-HA) (human) (UniProt Q00G26)
T1 sequence: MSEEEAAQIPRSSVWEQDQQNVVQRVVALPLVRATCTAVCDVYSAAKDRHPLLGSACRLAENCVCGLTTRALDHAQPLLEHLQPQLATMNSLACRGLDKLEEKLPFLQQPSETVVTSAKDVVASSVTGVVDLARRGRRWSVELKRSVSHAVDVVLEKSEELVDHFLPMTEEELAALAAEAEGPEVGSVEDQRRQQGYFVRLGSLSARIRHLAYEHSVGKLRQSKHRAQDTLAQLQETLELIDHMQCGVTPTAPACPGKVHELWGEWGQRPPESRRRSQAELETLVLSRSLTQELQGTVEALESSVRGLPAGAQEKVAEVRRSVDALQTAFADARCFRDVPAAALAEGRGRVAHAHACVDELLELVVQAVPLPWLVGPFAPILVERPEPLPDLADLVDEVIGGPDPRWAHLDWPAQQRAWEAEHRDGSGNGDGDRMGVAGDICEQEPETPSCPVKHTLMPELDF
Experiment: co-IP; NRCMs transfected with hKIF13B-GFP and hPLIN5-HA; IgG control named in the legend; which protein was precipitated is not told

**Q.** Which binding does the source give for “human kinesin family member 13B with GFP (hKIF13B-GFP) (from UniProt Q9NQT8 1-1826)” here?
**A.** binds
